From paper PMC5854136
These are yes or no findings as the source states them, for the method shown. Binding can be weak; no strength is given. Tags and fused reporters may be left off the sequences shown. For part of these data: Binding seen in cells or lysates may run through a third protein.

By UniProt entry, the sequences of proteins in these tests, tags left out.
UniProt Q9LN01: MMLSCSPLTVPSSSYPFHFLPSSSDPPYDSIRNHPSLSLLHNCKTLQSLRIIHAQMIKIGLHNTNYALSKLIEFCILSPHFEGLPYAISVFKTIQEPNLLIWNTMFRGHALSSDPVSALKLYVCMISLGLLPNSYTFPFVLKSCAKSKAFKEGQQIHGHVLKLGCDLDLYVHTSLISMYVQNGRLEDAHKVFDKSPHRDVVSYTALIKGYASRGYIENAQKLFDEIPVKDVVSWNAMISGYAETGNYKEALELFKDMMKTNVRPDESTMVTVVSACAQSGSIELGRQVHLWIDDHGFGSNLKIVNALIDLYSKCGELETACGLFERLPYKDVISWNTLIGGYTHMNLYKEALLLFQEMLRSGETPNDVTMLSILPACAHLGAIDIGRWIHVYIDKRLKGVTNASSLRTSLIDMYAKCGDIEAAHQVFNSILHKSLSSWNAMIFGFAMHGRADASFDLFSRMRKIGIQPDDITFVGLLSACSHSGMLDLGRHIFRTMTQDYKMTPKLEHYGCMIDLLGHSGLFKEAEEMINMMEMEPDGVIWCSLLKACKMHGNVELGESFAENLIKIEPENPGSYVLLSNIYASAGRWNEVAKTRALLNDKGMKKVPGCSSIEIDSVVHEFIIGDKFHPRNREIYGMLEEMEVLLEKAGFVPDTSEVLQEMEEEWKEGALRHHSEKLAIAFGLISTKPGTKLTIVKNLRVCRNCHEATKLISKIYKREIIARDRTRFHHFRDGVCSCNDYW

B1: MORF8-eYNE (N-terminal YFP fusion of MORF8) (protein, UniProt Q9LKA5 57-395)
chain: GGLVSVKGLSTQATSSSLNDPNPNWSNRPPKETILLDGCDFEHWLVVVEPPQGEPTRDEIIDSYIKTLAQIVGSEDEARMKIYSVSTRCYYAFGALVSEDLSHKLKELSNVRWVLPDSYLDVRNKDYGGEPFIDGKAVPYDPKYHEEWIRNNARANERNRRNDRPRNNDRSRNFERRRENMAGGPPPQRPPMGGPPPPPHIGGSAPPPPHMGGSAPPPPHMGQNYGPPPPNNMGGPRHPPPYGAPPQNNMGGPRPPQNYGGTPPPNYGGAPPANNMGGAPPPNYGGGPPPQYGAVPPPQYGGAPPQNNNYQQQGSGMQQPQYQNNYPPNRDGSGNPYQG
B2: MORF9-eYNE (N-terminal YFP fusion of MORF9) (protein, UniProt Q9LPZ1 59-232)
chain: AATVDSDYSSKRSNSNEQRETIMLPGCDYNHWLIVMEFPKDPAPSRDQMIDTYLNTLATVLGSMEEAKKNMYAFSTTTYTGFQCTIDEETSEKFKGLPGVLWVLPDSYIDVKNKDYGGDKYINGEIIPCTYPTYQPKQRNNTKYQSKRYERKRDGPPPPEQRKPRQEPAASDSS
B3: MORF8, GAL4 activation domain fusion (pAD-MORF8) (protein, UniProt Q9LKA5 1-395)
chain: MATHTISRSILCRPAKSLSFLFTRSFASSAPLAKSPASSLLSRSRPLVAAFSSVFRGGLVSVKGLSTQATSSSLNDPNPNWSNRPPKETILLDGCDFEHWLVVVEPPQGEPTRDEIIDSYIKTLAQIVGSEDEARMKIYSVSTRCYYAFGALVSEDLSHKLKELSNVRWVLPDSYLDVRNKDYGGEPFIDGKAVPYDPKYHEEWIRNNARANERNRRNDRPRNNDRSRNFERRRENMAGGPPPQRPPMGGPPPPPHIGGSAPPPPHMGGSAPPPPHMGQNYGPPPPNNMGGPRHPPPYGAPPQNNMGGPRPPQNYGGTPPPNYGGAPPANNMGGAPPPNYGGGPPPQYGAVPPPQYGGAPPQNNNYQQQGSGMQQPQYQNNYPPNRDGSGNPYQG
B4: MORF9, GAL4 activation domain fusion (pAD-MORF9) (protein, UniProt Q9LPZ1 1-232)
chain: MASFTTTSSSSLLLKTLLPVSHLNRFSTLSGIRVGDSWTPLLRNISTAGSRRRVAIVKAATVDSDYSSKRSNSNEQRETIMLPGCDYNHWLIVMEFPKDPAPSRDQMIDTYLNTLATVLGSMEEAKKNMYAFSTTTYTGFQCTIDEETSEKFKGLPGVLWVLPDSYIDVKNKDYGGDKYINGEIIPCTYPTYQPKQRNNTKYQSKRYERKRDGPPPPEQRKPRQEPAASDSS
B5: MORF2, GAL4 activation domain fusion (pAD-ORF2 as printed) (protein, UniProt O22793 1-219)
chain: MALPLSGTRHLTRALLSNVTLMAPPRIPSSVHYGGSRLGCSTRFFSIRCGANRSGSTYSPLNSGSNFSDRPPTEMAPLFPGCDYEHWLIVMDKPGGEGATKQQMIDCYIQTLAKVVGSEEEAKKRIYNVSCERYLGFGCEIDEETSTKLEGLPGVLFVLPDSYVDPENKDYGAELFVNGEIVQRSPERQRRVEPQPQRAQDRPRYNDRTRYSRRRENTR
B6: ORRM1, GAL4 activation domain fusion (pAD-ORRM1) (protein, UniProt Q8L440 1-374)
chain: MEALIASTSFFVPISNSSSSHIINNRFFPSFYSPNLNFGTFRKTSLSSSHLVFSSSAISAPPSSTVLTRNSYWMVLLDKPPHWVSSKSAMVDYYVEILAKVLGNEKDAQVSIYDASFDTHFGFCCHIDEDASRQLASLPGVVSIRPEQDYSSEKKNYGIGSHKGVSLFDHGTVKHWMVRIDKPGVGIVTKAQMVDHCVQLLSKVLWNEKDAQMCLYHVSWQSDFGFCCDLDERSAVELAGVPGVLAVVPDNSFESLNKDYEGDSTQDSRDQDDSESPPVKTKKLFITGLSFYTSEKTLRAAFEGFGELVEVKIIMDKISKRSKGYAFLEYTTEEAAGTALKEMNGKIINGWMIVVDVAKTKPFRQNRSQPSFGL
B7: OZ1, GAL4 activation domain fusion (pAD-OZ1) (protein, UniProt Q8S9K3 1-758)
chain: MNNSTRLISLFSPHPPPLFLLRGLYISRIANLRRFHRRAFPPSSVASTNLCSFRPLVSLPPLIPTFPIGRFYNHQVRVSAADFVPSYHNQQLPEWTELLQSLSKAGYFSDSGSISGLESEFFPGFPDELLRPALACLALARERPELLEMLSRRDVEVLVENGKPFLFKTGPDSLKRMSLYLRSGLQGIGKLMDMEKASTVDLMRLILSYVVDVASSEESKQHNKEIMESSVRSLLSQIAKMSLRPPESNVHDTMQNQYSDRDGQGVRSFQNNVEMKRGDWICSRCSGMNFARNVKCFQCDEARPKRQLTGSEWECPQCDFYNYGRNVACLRCDCKRPRDSSLNSANSDYSSDPELERRLVENEKKAQRWLSKVAQGGSDANSVDTDEDFPEIMPLRKGVNRYVVSTRKPPLERRLANTENRVATDGNSKRSDDNALGSKTTRSLNEILGSSSSLTSRSDDKNVSSRRFESSQGINTDFVPFVPLPSDMFAKKPKEETQIGLIDNIQVDGFSGGNQNVYQEDKSDANHSGKETDRLEKEDHKSEEPARWFKRVTELHNVSDLESAIPQEISPEKMPMRKGENRFVVSRKKDRSLTSPAYKRPEDSDFVPFVPFPPDYFAKEKQPKESIDTLPAPATENVSQVVQQEPREPSINKSDTVAVKIRNGKSLEGSLVKESDLLDMSEEAKAERWFKRVAEIKNISELSEIPDEDFPSIMPMRKGVNRFVVSKRKTPLERRLTSQRHQRNPHITNSDPTGKGDK
B8: PPO1, GAL4 activation domain fusion (pAD-PPO1) (protein, UniProt P55826 1-537)
chain: MELSLLRPTTQSLLPSFSKPNLRLNVYKPLRLRCSVAGGPTVGSSKIEGGGGTTITTDCVIVGGGISGLCIAQALATKHPDAAPNLIVTEAKDRVGGNIITREENGFLWEEGPNSFQPSDPMLTMVVDSGLKDDLVLGDPTAPRFVLWNGKLRPVPSKLTDLPFFDLMSIGGKIRAGFGALGIRPSPPGREESVEEFVRRNLGDEVFERLIEPFCSGVYAGDPSKLSMKAAFGKVWKLEQNGGSIIGGTFKAIQERKNAPKAERDPRLPKPQGQTVGSFRKGLRMLPEAISARLGSKVKLSWKLSGITKLESGGYNLTYETPDGLVSVQSKSVVMTVPSHVASGLLRPLSESAANALSKLYYPPVAAVSISYPKEAIRTECLIDGELKGFGQLHPRTQGVETLGTIYSSSLFPNRAPPGRILLLNYIGGSTNTGILSKSEGELVEAVDRDLRKMLIKPNSTDPLKLGVRVWPQAIPQFLVGHFDILDTAKSSLTSSGYEGLFLGGNYVAGVALGRCVEGAYETAIEVNNFMSRYAYK

molecular target: WTG1-eYCE (C-terminal YFP fusion of WTG1) (Arabidopsis thaliana); experiment: split reporter; BiFC: eYNE and eYCE fusions co-expressed in Nicotiana benthamiana leaves by A. tumefaciens infiltration; confocal imaging after 48 h; YFP fluorescence in chloroplasts

| Molecule | binding |
| --- | --- |
| B1 | binds |
| B2 | binds |

molecular target: WHITE TO GREEN1 (WTG1), GAL4 DNA binding domain fusion (pBD-WTG1) (Arabidopsis thaliana) (UniProt F4KJ01); experiment: two-hybrid; pGBKT7-WTG1 (GAL4 BD) cotransformed with pGADT7 (GAL4 AD) fusions into yeast strain AH109; growth on SD/-Trp-Leu-His plates indicates interaction

| Molecule | binding |
| --- | --- |
| OTP82, GAL4 activation domain fusion (pAD-OTP82) (from UniProt Q9LN01 1-741) | no binding |
| B3 | binds |
| B4 | binds |
| B5 | no binding |
| B6 | no binding |
| B7 | no binding |
| B8 | no binding |
